B1: glmS ribozyme (parent)
chain: AUAAAAGCGCCAGAACUACAGAAAUGUAGUUGACGAGGAGGAGGUUUAUCGAAUUUUCGGCGGAUGCCUCCAAA

± gives the standard error. Many of these values have a large error.

In one data set the parent is B1. Description: self-cleavage kobs at 2500 uM GlcN6P; higher = faster cleavage; RNA array. The following applies: with glucosamine-6-phosphate. Summed up: (§1)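 Glucosamine-6-phosphate, from 40 μM to 10 mM in HEPES/KCl/Mg(OAc)2 buffer, was flowed over sequenced MiSeq chips carrying barcoded ribozyme variants transcribed in situ by E. coli RNA polymerase. A hybridised Cy3 probe tracked the variants at 37 °C as tiles were imaged over ~14 h. kobs, kcat and KM were obtained by fitting normalised per-tile medians to exponential decays and then applying weighted Michaelis–Menten fits across concentrations.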
Turning to C8U U47G G63A C70A, the “self-cleavage kobs at 2500 uM GlcN6P” value was 3.2e-05 ± 3e-05 s⁻¹.
In the case of A12C U31A U55C C70U, the “self-cleavage kobs at 2500 uM GlcN6P” value turned out to be 2.72e-05 ± 2e-05 s⁻¹.
For G32U U69G, the “self-cleavage kobs at 2500 uM GlcN6P” value is 6.66e-05 ± 5.8e-05 s⁻¹.
Turning to G44C G66A C71U, the “self-cleavage kobs at 2500 uM GlcN6P” value was 3.9e-05 ± 2.1e-05 s⁻¹.
As for C61A C67U C71U, the “self-cleavage kobs at 2500 uM GlcN6P” value was 3.78e-05 ± 2e-05 s⁻¹.
Same read-out and setting: the value for A36G C50G was 2.89e-05 ± 2e-05 s⁻¹.
With G43A U54C, the “self-cleavage kobs at 2500 uM GlcN6P” value is 3.63e-05 ± 2.2e-05 s⁻¹.
On to A6G U46C U47A, for which the “self-cleavage kobs at 2500 uM GlcN6P” value came out at 2.79e-05 ± 2.4e-05 s⁻¹.
Regarding C10A C68G C71U, the “self-cleavage kobs at 2500 uM GlcN6P” value worked out at 5.18e-05 ± 2.8e-05 s⁻¹.
With G37U U49G U69G, the “self-cleavage kobs at 2500 uM GlcN6P” value was determined as 3.36e-05 ± 1.8e-05 s⁻¹.
On the same count and under the same terms, the value for A15G G59U C67U was 3.17e-05 ± 2.9e-05 s⁻¹; that for C11G C34G G35C G38U C70G was 4.1e-05 ± 3.6e-05 s⁻¹.
As for C8U G62A C70U, the “self-cleavage kobs at 2500 uM GlcN6P” value came out at 3.95e-05 ± 2e-05 s⁻¹.
On to C16U A39U A64C, for which the “self-cleavage kobs at 2500 uM GlcN6P” value turned out to be 5.12e-05 ± 3e-05 s⁻¹.
Turning to A6U C8G A33U C34G U69G, the “self-cleavage kobs at 2500 uM GlcN6P” value is 5.96e-05 ± 4e-05 s⁻¹.
In the case of A12U C70G, the “self-cleavage kobs at 2500 uM GlcN6P” value was determined as 0.00294 ± 0.0016 s⁻¹.
Take A14U U57G: the “self-cleavage kobs at 2500 uM GlcN6P” value was determined as 2.47e-05 ± 2e-05 s⁻¹.
Consider A14C A36G C68G, for which the “self-cleavage kobs at 2500 uM GlcN6P” value was found to be 4.91e-05 ± 2.8e-05 s⁻¹.
On to C50U U69G C70U, for which the “self-cleavage kobs at 2500 uM GlcN6P” value was 3.01e-05 ± 2.8e-05 s⁻¹.
On to U30A A52U C67G, for which the “self-cleavage kobs at 2500 uM GlcN6P” value came out at 3.78e-05 ± 1.9e-05 s⁻¹.
A39C U49G U54C: the “self-cleavage kobs at 2500 uM GlcN6P” value turned out to be 2.48e-05 ± 2.2e-05 s⁻¹.
Same read-out and setting: the value for U2A A3U C50A was 2.95e-05 ± 2.2e-05 s⁻¹; that for G35A C50U C67G C70U was 3.74e-05 ± 3.5e-05 s⁻¹; that for G13U U56A U65A C71U was 2.22e-05 ± 2.2e-05 s⁻¹.
With G13U A14U U69A, the “self-cleavage kobs at 2500 uM GlcN6P” value was 3.02e-05 ± 2.5e-05 s⁻¹.
On the same count and under the same terms, to G37C U55A G62A belongs 2.39e-05 ± 1.8e-05 s⁻¹; to U46C C58U, 2.18e-05 ± 1.3e-05 s⁻¹.
With C8A G13A G37U G59C C68G, the “self-cleavage kobs at 2500 uM GlcN6P” value was 5.27e-05 ± 3e-05 s⁻¹.
With U57G C67A, the “self-cleavage kobs at 2500 uM GlcN6P” value worked out at 3.12e-05 ± 2.9e-05 s⁻¹.
On to A36C G38A A53U C68G, for which the “self-cleavage kobs at 2500 uM GlcN6P” value was 4.36e-05 ± 3.2e-05 s⁻¹.
As to G9C G13U C50G U55C, the “self-cleavage kobs at 2500 uM GlcN6P” value worked out at 0.000131 ± 8.1e-05 s⁻¹.
The same measure, in the same setting: to U45A U54C C68G belongs 2.77e-05 ± 1.9e-05 s⁻¹.
Consider A15C C16G G66C, for which the “self-cleavage kobs at 2500 uM GlcN6P” value stood at 3e-05 ± 2.3e-05 s⁻¹.
In the case of A15U G32U G40C, the “self-cleavage kobs at 2500 uM GlcN6P” value was 2.53e-05 ± 2.5e-05 s⁻¹.

A further data set covers variants of B1. Description: self-cleavage kobs at 160 uM GlcN6P; higher = faster cleavage; RNA array. The note with it: with glucosamine-6-phosphate. The method, boiled down: as §1
Turning to G32U U69G, the “self-cleavage kobs at 160 uM GlcN6P” value was 5.39e-05 ± 2.9e-05 s⁻¹.
With A6C U49G C50U U69C, the “self-cleavage kobs at 160 uM GlcN6P” value was determined as 2.46e-05 ± 2.2e-05 s⁻¹.
Take C61A C67U C71U: the “self-cleavage kobs at 160 uM GlcN6P” value came out at 2.42e-05 ± 2.1e-05 s⁻¹.
Regarding A36G C50G, the “self-cleavage kobs at 160 uM GlcN6P” value came out at 2.17e-05 ± 1.9e-05 s⁻¹.
In the case of C8G G38U C68G, the “self-cleavage kobs at 160 uM GlcN6P” value worked out at 0.000361 ± 0.00026 s⁻¹.
With A6G U56G, the “self-cleavage kobs at 160 uM GlcN6P” value came to 1.61e-05 ± 1.5e-05 s⁻¹.
As to G32U U54C, the “self-cleavage kobs at 160 uM GlcN6P” value amounted to 1.78e-05 ± 9.1e-06 s⁻¹.
For G32U U54A, the “self-cleavage kobs at 160 uM GlcN6P” value was found to be 2.96e-05 ± 1.5e-05 s⁻¹.
On the same count and under the same terms, to C50U U69G C70U belongs 4.46e-05 ± 2.7e-05 s⁻¹.
Regarding A14G G59A, the “self-cleavage kobs at 160 uM GlcN6P” value was found to be 1.91e-05 ± 1.2e-05 s⁻¹.
For the variant A15C U47C C71U, the “self-cleavage kobs at 160 uM GlcN6P” value was 4.42e-05 ± 3e-05 s⁻¹.
Still for that read-out and setting: the value for A52U C67U was 1.92e-05 ± 9.9e-06 s⁻¹.
With A52U C67G, the “self-cleavage kobs at 160 uM GlcN6P” value was determined as 1.54e-05 ± 1e-05 s⁻¹.
With U57A C61G G62C A64G U65A G66U C67G U69C, the “self-cleavage kobs at 160 uM GlcN6P” value was 3.76e-05 ± 1.9e-05 s⁻¹.

In a further data set the parent is B1. Description: self-cleavage kobs at 640 uM GlcN6P; higher = faster cleavage; RNA array. The note with it: with glucosamine-6-phosphate. The method, boiled down: as §1
Regarding U47G C50A A64C, the “self-cleavage kobs at 640 uM GlcN6P” value turned out to be 2.5e-05 ± 1.8e-05 s⁻¹.
A36G C50G: the “self-cleavage kobs at 640 uM GlcN6P” value worked out at 2.47e-05 ± 2.1e-05 s⁻¹.
With A14U G32A C50G U55A C67G, the “self-cleavage kobs at 640 uM GlcN6P” value was 3.69e-05 ± 3e-05 s⁻¹.
With A53C A64C, the “self-cleavage kobs at 640 uM GlcN6P” value is 3e-05 ± 2.1e-05 s⁻¹.
Same read-out and setting: to C10A C68G C71U belongs 0.000211 ± 0.00011 s⁻¹; to G32C A33G U49A C68A, 4.36e-05 ± 2.5e-05 s⁻¹.
Turning to C11A A15C U54G, the “self-cleavage kobs at 640 uM GlcN6P” value came out at 3.04e-05 ± 2.6e-05 s⁻¹.
Consider A6U A53C, for which the “self-cleavage kobs at 640 uM GlcN6P” value worked out at 2.2e-05 ± 1.9e-05 s⁻¹.
The same measure, in the same setting: the value for A6C U69C was 3.13e-05 ± 1.7e-05 s⁻¹; that for U31A A42U was 1.39e-05 ± 1.1e-05 s⁻¹; that for C11G C34G G35C G38U C70G was 4.33e-05 ± 3.1e-05 s⁻¹.
Same read-out and setting: the value for C16G C58U was 2.02e-05 ± 1.7e-05 s⁻¹.
For the variant U45G U69A, the “self-cleavage kobs at 640 uM GlcN6P” value is 0.000174 ± 0.00011 s⁻¹.
G59U C67U: the “self-cleavage kobs at 640 uM GlcN6P” value was 1.54e-05 ± 1.1e-05 s⁻¹.
On the same count and under the same terms, to G13C U45A U46C belongs 3.53e-05 ± 2e-05 s⁻¹; to U31C C67A C68G, 1.8e-05 ± 1.7e-05 s⁻¹.
Still for that read-out and setting: to A14C A36G C68G belongs 6.72e-05 ± 5.1e-05 s⁻¹; to U45A A52U C67A, 2.98e-05 ± 1.9e-05 s⁻¹; to U30C A53C, 1.99e-05 ± 1.5e-05 s⁻¹.
For C11U A15G G35A C70G C71G, the “self-cleavage kobs at 640 uM GlcN6P” value amounted to 0.00235 ± 0.0017 s⁻¹.
Turning to C16G G40U U55A G60U, the “self-cleavage kobs at 640 uM GlcN6P” value stood at 0.00103 ± 0.00088 s⁻¹.
In the case of G44C U46A, the “self-cleavage kobs at 640 uM GlcN6P” value was determined as 4.12e-05 ± 2.9e-05 s⁻¹.
Still for that read-out and setting: the value for A39G A64G U69A was 4.41e-05 ± 2.8e-05 s⁻¹; that for C34A G38U C50G was 4.38e-05 ± 2.9e-05 s⁻¹.
For the variant U57G C67A, the “self-cleavage kobs at 640 uM GlcN6P” value was 4.59e-05 ± 2.4e-05 s⁻¹.
Same read-out and setting: to U57A C61G G62C A64G U65A G66U C67G U69C belongs 2.85e-05 ± 2.5e-05 s⁻¹.

Variants of B1 are the subject of another data set. Description: self-cleavage kobs at 40 uM GlcN6P; higher = faster cleavage; RNA array. The note with it: with glucosamine-6-phosphate. Summed up: as §1
Consider A36U C61G C70G, for which the “self-cleavage kobs at 40 uM GlcN6P” value is 3.09e-05 ± 1.8e-05 s⁻¹.
As for C11G G38A U57A C70G, the “self-cleavage kobs at 40 uM GlcN6P” value was 2.82e-05 ± 2.1e-05 s⁻¹.
Regarding A12U G32A, the “self-cleavage kobs at 40 uM GlcN6P” value came to 2.6e-05 ± 1.9e-05 s⁻¹.
As for G13C A53G, the “self-cleavage kobs at 40 uM GlcN6P” value amounted to 0.00349 ± 0.0035 s⁻¹.
C50G G60C U69A: the “self-cleavage kobs at 40 uM GlcN6P” value is 3.88e-05 ± 2.4e-05 s⁻¹.
As to A36U G37C C50U U57A U69G, the “self-cleavage kobs at 40 uM GlcN6P” value is 5e-05 ± 2.6e-05 s⁻¹.
In the case of U54A G66C, the “self-cleavage kobs at 40 uM GlcN6P” value is 1.78e-05 ± 1.1e-05 s⁻¹.
On the same count and under the same terms, the value for A12C C16A was 1.12e-05 ± 1e-05 s⁻¹.
In the case of A39U A53U C70G, the “self-cleavage kobs at 40 uM GlcN6P” value is 2.64e-05 ± 1.4e-05 s⁻¹.
Same read-out and setting: the value for U46C C70G C71A was 4.04e-05 ± 2.5e-05 s⁻¹; that for U57G C58G C67G was 3.46e-05 ± 2.7e-05 s⁻¹.

In a further data set the parent is B1. Description: self-cleavage kobs at 10000 uM GlcN6P; higher = faster cleavage; RNA array. The following applies: with glucosamine-6-phosphate. Summed up: as §1
Regarding A36U C61G C70G, the “self-cleavage kobs at 10000 uM GlcN6P” value stood at 2.02e-05 ± 2e-05 s⁻¹.
Still for that read-out and setting: to A36G C50G belongs 0.000601 ± 0.00059 s⁻¹; to A6C U69C, 2.23e-05 ± 1.3e-05 s⁻¹; to G59U C67U, 1.72e-05 ± 9e-06 s⁻¹.
With U46C C70G C71A, the “self-cleavage kobs at 10000 uM GlcN6P” value amounted to 4.43e-05 ± 2.3e-05 s⁻¹.
In the case of U45A U54C C68G, the “self-cleavage kobs at 10000 uM GlcN6P” value came out at 3.72e-05 ± 2.2e-05 s⁻¹.

Variants of B1 are the subject of the next data set. Description: KM; higher = weaker cofactor use; RNA array. The note with it: with glucosamine-6-phosphate. Summed up:
as §1
For the variant C67A C71U, the KM stood at 638 ± 350 µM.

The values are drawn from the supplement of paper PMC7125110.
